PubChem BioAssay AID743454 | Peter MacCallum Cancer Centre | 2014
Screen: 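Search for knock-downs that restore vorinostat killing in resistant colon cancer cells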 (primary screen). Cell system: human HCT116-VR colon cancer cells, selected for vorinostat resistance. Reagents: siRNA pool against human genes, 40 nM siRNA pool. Time to read-out: vorinostat for 24 h, read-out about 72 h after transfection. Challenge: vorinostat at 2.5 µM final. Measured: 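Two measures, CellTiter-Fluor viability and luminescent caspase 3/7 activity, each as fold change against same-plate mock wells, mean of duplicates, then screen-wide robust z-score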. Scale: viability robust z-score: higher = more viable cells than screen typical; caspase robust z-score: higher = more caspase 3/7 activity than screen typical. Active means: 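Hits are knock-downs in viability class RV1/RV2 or caspase class CA1/CA2, excluding ones that killed cells in the no-drug cell-count arm; hits then retested with single siRNAs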.
Shown is one part, drawn at random, of about 18,000 deposited reagents. 450 of them (2.5%) were called active. 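Single biological run; no consistent viability z cut-off exists, so the class columns, not z-scores, define the calls.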 Entries without a mark were called inactive.

target	viability hit class	caspase hit class	viability robust z-score	caspase robust z-score
ARHGAP6	no change	no change	-0.1	-0.99
CHD1	no change	no change	0.83	-1
APBB1	no change	no change	-1.31	-0.36
RGS7	no change	no change	1.27	-0.43
FOXK1	no change	no change	0.87	2.97
SAMD4B	no change	no change	-2.46	2.19
MTCL1	no change	no change	1.26	0.65
MAML3	no change	no change	-1.77	-0.06
BSPRY	no change	no change	0.26	-0.85
EXOC6	no change	no change	0.54	-0.83
DHX58	no change	no change	-2.37	-0.5
CADPS	no change	no change	0.29	-0.56
HNRNPLL	no change	no change	0.04	1.13
DBNDD1	no change	no change	-1.23	-0.28
LSM14A	no change (active)	CA2 (caspase activation)	-1.14	10.7
SC5D	no change (active)	CA1 (caspase activation)	-0.82	6.61
SPATA1	no change	no change	0.6	0.83
RTCB	no change	no change	1.15	-0.02
LRR1	no change	no change	0.66	2.21
OR2F1	no change	no change	-1.23	2.12
RBM48	no change	no change	0.02	-1.24
HNRNPCL1	no change	no change	1.2	0.06
ZMYND11	no change	no change	0.66	-0.46
CLASP1	no change	no change	0.89	4
STYXL1	no change	no change	-0.48	-0.24

Records listed so far whose gene name starts with R or r (3):
target	viability hit class	caspase hit class	viability robust z-score	caspase robust z-score
RGS7	no change	no change	1.27	-0.43
RTCB	no change	no change	1.15	-0.02
RBM48	no change	no change	0.02	-1.24

The list goes on:
target	viability hit class	caspase hit class	viability robust z-score	caspase robust z-score
BBLN	no change	no change	-0.32	-0.2
FMO3	no change	no change	-0.49	-0.86
HOXB8	no change	no change	0.13	-0.42
GRM2	no change	no change	0.31	0.54
RFXAP	no change	no change	-0.5	2.02
ABHD15	no change	no change	-1.46	-0.26
RFNG	no change	no change	1.09	-0.86
STYXL2	no change	no change	0.02	-1.16
IQCF3	no change	no change	-0.39	-0.45
ZNF552	no change	no change	-1.28	0.88
NDEL1	no change	no change	-0.91	2.87
NQO1	no change	no change	-0.3	0.85
BBS2	no change	no change	0.3	-0.52
ATP8B1	no change	no change	-0.06	2.17
KRT17	no change	no change	-0.92	-0.4
OAS2	no change	no change	0.84	-0.79
MPP4	no change	no change	-0.82	0.06
JADE1	no change	no change	0.28	1.06
CHRNA2	no change	no change	-0.62	-0.6
NOX4	no change	no change	-0.5	1.48
ANKRD33	no change	no change	0.19	-0.24
RUFY1	no change	no change	0.76	1.79
ACOT13	no change	no change	0.29	-0.84
ADAMTS3	no change	no change	0.76	-0.92
ETV3	no change	no change	-2.53	-0.88
ACBD3	no change	no change	-0.22	1.23
RGMB	no change	no change	0.16	-0.04
PTGDS	no change	no change	1.42	1.98
RIMS1	no change	no change	0.36	-0.6
RUNDC1	no change	no change	0.5	3.57
SHC4	no change	no change	-1.25	0.24
RSBN1	no change	no change	0.76	4.43
